Experimental data taken from publication doi:10.1101/2020.05.08.084814.
Results are given in words; binding and its absence hold for the method and conditions named. Binding seen in cells or lysates may run through a third protein. Binding can be weak; no strength is given. One block for each binder: values may come before it.

Target: Vera (Igf2bp3) (Xenopus laevis (endogenous in oocytes))
Experiment: co-IP

binding: binds
B1: hnRNPAB (40LoVE) (protein, UniProt A0A7M4CIF6 1-304)
chain: MSDTEQQCLETNAENGHEACDAEAAEDKAPTGQNGAEGEQINASKGEEDAGCVADISSPLTEGVKMFVGGLSWDTSKKDLKDYFAKFGEVSDCTIKMDPNTGRSRGFGFILFKDAESVDKVLEHKEHRLDGRLIDPKKAMAMKKDPIKKIFVGGLNPEAGEDQIREYFETFGEIEAIELPMDPKTNKRRGFVFITFKEEDPVKKILEKKFHNVSGSKCEIKIAQPKEVYQQQYGGRGGSFGGRGGRGGKGQGQNWNQGYNYWNQGYGNQGYGGYGQQGYGGYGNYDYSGYGYYGYGPGYDYSKN

binding: binds
B2: Stau1 (Staufen1) (protein, UniProt Q6GM35 1-708)
chain: MSQAPKSPAAPLPKIQILNKNQHSPLPQPLSIPSTASPLPSENAGRPLQNSALPSPSVTSSGPTAVSSNMANPKEKTPMCLVNELARFNKIQPVYKLLSEQGPAHSKVIPLGRWQDYSLLERVGEERPRQMFTVQLTLGDQYWEAEGTSIKKAQHAAAAKALEGTKYPKPTVRPVRDSITPTVELNALCMKLGRKPIYKPLDPYTGIRSAYNYNMRGGGYPPRYFYPFPVAPILYQVELSVGGQQFHGKGRTRQAAKHDAAARALKSLHHEPLPDKPALNGKAADEENLNKSEISQVFEIALKRNMSVNFEVTKETGPPHMKSFLTKVIVGEFLGEGEGKSKKISKKNAAIAVLEELRKLPPLPTVEKMRPKIKKKTKSIVKLPTSPEYGQGMNPISRLAQIQQAKKGKEPEYILITERGLPRRREFVMQVKVGNHAAEGSGTNKKVAKRNAAENMLEILGFKVPPPPPKPALKTEEKLPVKKPGDGRKVTFYEPGSGEDGANHNKDDEFRMPYHSHQQLPAGILPMVPEVAQAVGVNQGLHTKEFNRVAPNPAKATVTAMIARELLYAGISPTADTILKNNNAAGHVLRGPFTRPSEQLNYLSRVQGLEVEYKDFPKNNKNEFVSLINCSSQPPLISHGIGKDVESCHDMAALNILKLLSELDQQNPEMPRTGNGPMSVCVKPEMESDPLLKPANSNTLGQTLDSTA
